PubChem BioAssay AID1224828 – NIAID | 2016
In all, the deposit lists about 17,000 reagents; shown is an unselected part. 762 of them (4.5%) count as active. 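Active calls include both raised and lowered p65 entry, mostly lowered; wells with fewer than 50 cells lack a z-score.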 The raw values are shown without normalisation. Entries without a mark were called inactive. Reagent sequences are not shown.

Purpose: 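Find genes required for NF-kappaB p65 moving into the nucleus after LPS in mouse macrophages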 (primary screen)
System: mouse RAW264.7 G9 macrophage reporter cells (GFP-p65, Tnf promoter-mCherry)
Reagents: siRNA pool against mouse genes, 100 nM
Duration: 2 days siRNA transfection, then 40 min LPS before fixation
Treatment: LPS (Salmonella minnesota R595) at 10 ng/ml
Detection: 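Imaged p65 nuclear translocation ratio, normalised to the plate median, converted to robust z-scores and averaged across two replicates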
Scale: p65 translocation robust z-score: higher = more nuclear NF-kappaB p65 after LPS than the plate median; nuclear/cytoplasmic p65 ratio: higher = more nuclear NF-kappaB p65
Hit rule: 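Called active when z exceeds 3.3 or falls under -1.56 (median of Tlr4 controls), giving activity score of at least 50; no calls for control wells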
Meaning of the calls: active = hit (p65 shift raised or lowered); inactive = no clear change

target gene	PubChem SID	p65 translocation robust z-score	nuclear/cytoplasmic p65 ratio, rep 1	nuclear/cytoplasmic p65 ratio, rep 2	low cell count flag
Slc6a12	SID315466810	2.92	1.78	1.6	enough cells to score
H2-DMa (histocompatibility 2, class II, locus DMa)	SID315467115	-0.37	1.4	1.32	enough cells to score
Tjp2 (tight junction protein 2)	SID315469732	-0.2	1.71	1.36	enough cells to score
Arpc1a (actin related protein 2/3 complex, subunit 1A)	SID315471539	-1.31	1.45	1.39	enough cells to score
Olig2 (oligodendrocyte transcription factor 2)	SID315470880	0.21	1.53	1.39	enough cells to score
Prkcg (protein kinase C, gamma)	SID315468540	0.98	1.82	1.52	enough cells to score
Gemin5 (gem nuclear organelle associated protein 5)	SID315478025	-0.66	1.46	1.41	enough cells to score
Tubg1 (tubulin, gamma 1)	SID315476387	-0.67	1.54	1.29	enough cells to score
Endov (endonuclease V)	SID315481680	-0.19	1.43	1.42	enough cells to score
Nmrk1 (nicotinamide riboside kinase 1)	SID315478453	-1.95 (active)	1.16	1.66	enough cells to score
Myl9 (myosin, light polypeptide 9, regulatory)	SID315476154	0.21	1.46	1.38	enough cells to score
Ctsl (cathepsin L)	SID315466198	0.97	1.68	1.44	enough cells to score
Rel (Rel proto-oncogene, NFKB subunit)	SID315468939	0.04	1.53	1.52	enough cells to score
Anp32a (acidic nuclear phosphoprotein 32 family member A)	SID315465417	-0.95	1.43	1.57	enough cells to score
Atp10b (ATPase, class V, type 10B)	SID315481165	-0.26	1.44	1.45	enough cells to score
Rab18 (RAB18, member RAS oncogene family)	SID315468848	-0.68	1.45	1.39	enough cells to score
Map3k8 (mitogen-activated protein kinase kinase kinase 8)	SID315470387	-0.5	2.13	1.31	enough cells to score
Peak1 (pseudopodium-enriched atypical kinase 1)	SID315479792	-0.49	1.76	1.32	enough cells to score
Il4ra (interleukin 4 receptor, alpha)	SID315467457	1.7	1.72	1.59	enough cells to score
Or2g7 (olfactory receptor family 2 subfamily G member 7)	SID315480157	-0.05	1.51	1.5	enough cells to score
Kras (Kras proto-oncogene, GTPase)	SID315467680	-1.47	1.28	1.19	enough cells to score
Kctd8 (potassium channel tetramerisation domain containing 8)	SID315479660	2.7	1.88	1.84	enough cells to score
Calm1 (calmodulin 1)	SID315465730		1.41	1.4	fewer than 50 cells per well; well left out of scoring
Disp3 (dispatched RND transporter family member 3)	SID315479650	0.33	1.66	1.49	enough cells to score
Ccnf (cyclin F)	SID315465819	0.28	1.57	1.35	enough cells to score
Or1j21 (olfactory receptor family 1 subfamily J member 21)	SID315468319		1.14	1.14	fewer than 50 cells per well; well left out of scoring
Extl1 (exostosin-like glycosyltransferase 1)	SID315471409	-1.32	1.5	1.19	enough cells to score
Selp (selectin, platelet)	SID315469169	0.79	1.62	1.72	enough cells to score
Or9k2 (olfactory receptor family 9 subfamily K member 2)	SID315480325		1.55	1.44	fewer than 50 cells per well; well left out of scoring
Slc30a3	SID315470160	-0.16	1.46	1.53	enough cells to score
Fbxo9 (F-box protein 9)	SID315474251	-0.07	1.5	1.32	enough cells to score
Cyp4a14 (cytochrome P450, family 4, subfamily a, polypeptide 14)	SID315466248	-0.28	1.47	1.81	enough cells to score
Smc2 (structural maintenance of chromosomes 2)	SID315466693		1.73	1.08	fewer than 50 cells per well; well left out of scoring
Ankrd10 (ankyrin repeat domain 10)	SID315476326	0.29	1.59	1.79	enough cells to score
Prpsap1 (phosphoribosyl pyrophosphate synthetase-associated protein 1)	SID315473213	2.41	2.14	1.64	enough cells to score
C530047H08Rik (RIKEN cDNA C530047H08 gene)	SID315481074	-0.56	1.4	1.4	enough cells to score
Nrbp1 (nuclear receptor binding protein 1)	SID315477415	-1.8 (active)	1.31	1.22	enough cells to score
Incenp (inner centromere protein)	SID315467473		1.21	1.2	fewer than 50 cells per well; well left out of scoring
H2-T10 (histocompatibility 2, T region locus 10)	SID315467126	-0.5	1.59	1.45	enough cells to score
Fancd2 (Fanconi anemia, complementation group D2)	SID315477697	0.42	1.54	1.41	enough cells to score

Not a retest: entries from further up.
target gene	PubChem SID	p65 translocation robust z-score	nuclear/cytoplasmic p65 ratio, rep 1	nuclear/cytoplasmic p65 ratio, rep 2	low cell count flag
Prkcg (protein kinase C, gamma)	SID315468540	0.98	1.82	1.52	enough cells to score
Gemin5 (gem nuclear organelle associated protein 5)	SID315478025	-0.66	1.46	1.41	enough cells to score
Tubg1 (tubulin, gamma 1)	SID315476387	-0.67	1.54	1.29	enough cells to score
Endov (endonuclease V)	SID315481680	-0.19	1.43	1.42	enough cells to score
Nmrk1 (nicotinamide riboside kinase 1)	SID315478453	-1.95 (active)	1.16	1.66	enough cells to score
Myl9 (myosin, light polypeptide 9, regulatory)	SID315476154	0.21	1.46	1.38	enough cells to score
